For at least one compound, name, drawing or mass did not settle the structure.
Test system: L-phenylalanine dehydrogenase
Test: Rate of reductive amination compared with oxidative deamination
Type: biochemical
Details: at an optimum pH

O=C(O)C(=O)Cc1ccccc1 [phenylpyruvate]
rate of reductive amination relative to oxidative deamination of L-phenylalanine: about 5.5 times

Source: patent US4849345A, “L-phenylalanine dehydrogenase and use thereof” (priority 1985, dated 1989)
